From the M2OR odorant receptor database
The entries are a selection whose mix differs from that of the whole data set. Calls are pooled over several reports, among them a noisy single-well screen. The list shows a part of the results. Some of the results follow.

How the values were obtained:
Settings in all cases: stereoisomer not certain
O52R1 = test system: T1, O52R1
T1 sequence (whole entry): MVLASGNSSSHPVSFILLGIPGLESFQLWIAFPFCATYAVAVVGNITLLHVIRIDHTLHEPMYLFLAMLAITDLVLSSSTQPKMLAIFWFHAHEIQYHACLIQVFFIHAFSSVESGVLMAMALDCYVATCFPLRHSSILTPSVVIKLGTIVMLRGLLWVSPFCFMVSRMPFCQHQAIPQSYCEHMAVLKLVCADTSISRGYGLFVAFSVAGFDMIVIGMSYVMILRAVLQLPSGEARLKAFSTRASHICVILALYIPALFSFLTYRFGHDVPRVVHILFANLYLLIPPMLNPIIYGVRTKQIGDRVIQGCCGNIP
In short: (§1)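 Values were gathered from published papers (main text and supplementary material), with extra details requested from the original authors when needed, and checked for typos and inconsistencies. Each receptor–molecule pair is called responsive (active) if the original authors judged the measured signal statistically different from baseline, and non-responsive (inactive) otherwise. Assay methods varied by source, often transient mammalian cell-line luciferase assays. Recorded details include cell line, G-protein, co-transfected protein and tags.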

O52W1 = test system: T2, O52W1
T2 sequence (whole entry): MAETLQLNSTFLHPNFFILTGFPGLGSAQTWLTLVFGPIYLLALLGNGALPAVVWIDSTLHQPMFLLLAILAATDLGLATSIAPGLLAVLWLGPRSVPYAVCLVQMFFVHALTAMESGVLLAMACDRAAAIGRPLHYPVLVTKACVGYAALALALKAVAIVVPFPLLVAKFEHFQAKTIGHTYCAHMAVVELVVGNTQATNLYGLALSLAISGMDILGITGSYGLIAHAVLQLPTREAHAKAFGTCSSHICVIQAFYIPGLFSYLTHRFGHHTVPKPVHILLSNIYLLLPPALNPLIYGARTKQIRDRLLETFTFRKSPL
In short: as §1

O56A3 = test system: T3, O56A3
T3 sequence (whole entry): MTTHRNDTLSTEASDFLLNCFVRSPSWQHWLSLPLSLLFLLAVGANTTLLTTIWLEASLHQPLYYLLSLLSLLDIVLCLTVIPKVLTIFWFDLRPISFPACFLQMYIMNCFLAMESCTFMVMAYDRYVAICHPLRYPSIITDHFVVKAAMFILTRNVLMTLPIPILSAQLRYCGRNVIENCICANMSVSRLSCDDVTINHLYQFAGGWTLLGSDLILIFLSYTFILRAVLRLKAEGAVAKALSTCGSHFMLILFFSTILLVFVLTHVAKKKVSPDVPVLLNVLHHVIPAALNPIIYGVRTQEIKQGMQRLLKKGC
In short: as §1

O56B1 = test system: T4, O56B1
T4 sequence (whole entry): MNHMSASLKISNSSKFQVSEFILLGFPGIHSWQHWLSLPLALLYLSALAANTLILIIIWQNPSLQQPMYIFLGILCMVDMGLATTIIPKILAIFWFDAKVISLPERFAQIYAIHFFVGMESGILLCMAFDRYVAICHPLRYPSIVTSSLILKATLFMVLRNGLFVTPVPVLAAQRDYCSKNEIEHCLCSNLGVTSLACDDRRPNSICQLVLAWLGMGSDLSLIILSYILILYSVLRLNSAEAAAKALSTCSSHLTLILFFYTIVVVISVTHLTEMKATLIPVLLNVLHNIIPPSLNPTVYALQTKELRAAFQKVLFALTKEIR
In short: as §1

O56B4 = test system: T5, O56B4
T5 sequence (whole entry): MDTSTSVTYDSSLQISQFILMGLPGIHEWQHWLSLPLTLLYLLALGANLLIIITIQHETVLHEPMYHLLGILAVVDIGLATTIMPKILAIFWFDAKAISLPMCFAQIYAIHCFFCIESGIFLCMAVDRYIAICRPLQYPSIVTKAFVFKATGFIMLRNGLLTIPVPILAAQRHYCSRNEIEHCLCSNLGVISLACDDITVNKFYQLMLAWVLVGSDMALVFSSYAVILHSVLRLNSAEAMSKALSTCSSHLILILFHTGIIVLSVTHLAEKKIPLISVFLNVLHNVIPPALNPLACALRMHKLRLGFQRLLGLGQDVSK
In short: as §1

O5AC2 = test system: T6, O5AC2
T6 sequence (whole entry): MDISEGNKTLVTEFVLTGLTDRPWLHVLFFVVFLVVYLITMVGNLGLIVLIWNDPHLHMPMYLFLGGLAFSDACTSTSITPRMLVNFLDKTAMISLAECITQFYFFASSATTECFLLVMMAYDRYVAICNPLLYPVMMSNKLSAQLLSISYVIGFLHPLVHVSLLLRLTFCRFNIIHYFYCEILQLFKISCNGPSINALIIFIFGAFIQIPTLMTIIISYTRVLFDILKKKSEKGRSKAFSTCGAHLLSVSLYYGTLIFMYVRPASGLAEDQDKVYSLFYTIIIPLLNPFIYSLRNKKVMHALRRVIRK
In short: as §1

O5AK2 = test system: T7, O5AK2
T7 sequence (whole entry): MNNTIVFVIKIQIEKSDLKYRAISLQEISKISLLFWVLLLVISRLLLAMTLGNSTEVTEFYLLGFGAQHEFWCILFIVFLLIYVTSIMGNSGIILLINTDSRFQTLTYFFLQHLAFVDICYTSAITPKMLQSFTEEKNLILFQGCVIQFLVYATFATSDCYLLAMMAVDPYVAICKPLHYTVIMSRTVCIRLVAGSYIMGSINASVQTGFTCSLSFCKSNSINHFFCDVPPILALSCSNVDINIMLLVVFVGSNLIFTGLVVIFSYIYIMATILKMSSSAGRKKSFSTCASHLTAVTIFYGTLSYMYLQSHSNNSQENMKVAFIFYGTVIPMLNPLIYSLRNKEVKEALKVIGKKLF
In short: as §1

O5AK3 = test system: T8, O5AK3
T8 sequence (whole entry): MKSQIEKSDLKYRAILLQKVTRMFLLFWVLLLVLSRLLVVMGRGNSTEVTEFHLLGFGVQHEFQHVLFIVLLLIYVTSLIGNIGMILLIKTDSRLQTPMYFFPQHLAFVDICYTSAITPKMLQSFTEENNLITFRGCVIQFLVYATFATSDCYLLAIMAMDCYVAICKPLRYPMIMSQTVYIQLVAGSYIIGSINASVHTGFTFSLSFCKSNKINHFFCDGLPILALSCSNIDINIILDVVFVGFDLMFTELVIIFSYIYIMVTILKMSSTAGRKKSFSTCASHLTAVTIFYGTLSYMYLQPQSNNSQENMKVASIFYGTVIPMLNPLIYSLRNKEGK
In short: as §1

O5AL1 = test system: T9, O5AL1
T9 sequence (whole entry): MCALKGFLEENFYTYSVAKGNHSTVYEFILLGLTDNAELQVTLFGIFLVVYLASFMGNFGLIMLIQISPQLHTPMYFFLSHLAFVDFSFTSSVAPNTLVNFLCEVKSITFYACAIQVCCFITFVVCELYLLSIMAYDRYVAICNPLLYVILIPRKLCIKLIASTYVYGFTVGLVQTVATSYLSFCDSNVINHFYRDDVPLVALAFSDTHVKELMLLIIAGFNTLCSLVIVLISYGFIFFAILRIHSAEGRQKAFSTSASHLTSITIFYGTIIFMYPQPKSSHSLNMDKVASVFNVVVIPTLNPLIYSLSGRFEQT
In short: as §1

O5AP2 = test system: T10, O5AP2
T10 sequence (whole entry): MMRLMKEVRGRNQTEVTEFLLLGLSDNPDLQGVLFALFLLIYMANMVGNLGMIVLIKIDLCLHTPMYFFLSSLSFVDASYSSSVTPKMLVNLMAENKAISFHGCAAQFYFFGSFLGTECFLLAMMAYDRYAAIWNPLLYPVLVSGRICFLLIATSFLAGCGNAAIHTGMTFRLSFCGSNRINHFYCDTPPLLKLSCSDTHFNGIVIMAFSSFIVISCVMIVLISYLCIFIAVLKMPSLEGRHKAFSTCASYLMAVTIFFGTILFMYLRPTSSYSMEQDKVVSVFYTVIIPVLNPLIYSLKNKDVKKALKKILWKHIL
In short: as §1

O5AU1 = test system: T11, O5AU1
T11 sequence (whole entry): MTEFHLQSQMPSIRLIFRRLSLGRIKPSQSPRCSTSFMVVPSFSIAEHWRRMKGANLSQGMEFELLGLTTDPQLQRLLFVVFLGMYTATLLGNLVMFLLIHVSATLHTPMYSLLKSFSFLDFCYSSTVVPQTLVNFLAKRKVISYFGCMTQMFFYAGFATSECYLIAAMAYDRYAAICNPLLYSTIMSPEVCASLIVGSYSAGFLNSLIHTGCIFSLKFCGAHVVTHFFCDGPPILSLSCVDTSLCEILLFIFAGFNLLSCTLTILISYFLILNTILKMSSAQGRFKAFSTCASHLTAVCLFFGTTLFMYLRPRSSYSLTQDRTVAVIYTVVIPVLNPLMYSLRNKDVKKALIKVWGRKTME
In short: as §1

O5H14 = test system: T12, O5H14
T12 sequence (whole entry): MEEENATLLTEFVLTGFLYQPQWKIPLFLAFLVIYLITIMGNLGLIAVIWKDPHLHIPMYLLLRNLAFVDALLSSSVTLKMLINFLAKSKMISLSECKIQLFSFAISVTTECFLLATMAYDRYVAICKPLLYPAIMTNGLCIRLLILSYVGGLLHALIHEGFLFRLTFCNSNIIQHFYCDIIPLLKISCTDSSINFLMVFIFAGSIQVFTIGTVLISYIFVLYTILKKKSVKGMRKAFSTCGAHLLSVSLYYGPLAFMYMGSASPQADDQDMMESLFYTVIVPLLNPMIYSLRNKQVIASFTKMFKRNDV
In short: as §1

O6C68 = test system: T13, O6C68
T13 sequence (whole entry): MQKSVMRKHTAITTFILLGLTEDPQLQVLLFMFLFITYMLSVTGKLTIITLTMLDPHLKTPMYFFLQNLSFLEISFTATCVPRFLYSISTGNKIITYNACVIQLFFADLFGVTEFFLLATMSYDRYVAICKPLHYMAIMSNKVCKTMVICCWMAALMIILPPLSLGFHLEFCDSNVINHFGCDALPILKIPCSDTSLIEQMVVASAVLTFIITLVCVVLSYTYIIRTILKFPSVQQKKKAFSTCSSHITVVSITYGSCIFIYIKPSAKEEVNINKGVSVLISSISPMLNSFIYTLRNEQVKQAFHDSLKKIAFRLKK
In short: as §1

O6C70 = test system: T14, O6C70
T14 sequence (whole entry): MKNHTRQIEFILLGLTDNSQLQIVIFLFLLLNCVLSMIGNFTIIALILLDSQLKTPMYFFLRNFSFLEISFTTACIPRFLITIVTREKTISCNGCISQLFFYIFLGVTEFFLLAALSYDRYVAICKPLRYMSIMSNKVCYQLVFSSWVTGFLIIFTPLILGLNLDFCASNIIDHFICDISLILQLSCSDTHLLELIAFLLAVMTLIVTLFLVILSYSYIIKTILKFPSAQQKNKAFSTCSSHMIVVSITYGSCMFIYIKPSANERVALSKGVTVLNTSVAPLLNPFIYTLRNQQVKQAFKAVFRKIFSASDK
In short: as §1

O7E24 = test system: T15, O7E24
T15 sequence (whole entry): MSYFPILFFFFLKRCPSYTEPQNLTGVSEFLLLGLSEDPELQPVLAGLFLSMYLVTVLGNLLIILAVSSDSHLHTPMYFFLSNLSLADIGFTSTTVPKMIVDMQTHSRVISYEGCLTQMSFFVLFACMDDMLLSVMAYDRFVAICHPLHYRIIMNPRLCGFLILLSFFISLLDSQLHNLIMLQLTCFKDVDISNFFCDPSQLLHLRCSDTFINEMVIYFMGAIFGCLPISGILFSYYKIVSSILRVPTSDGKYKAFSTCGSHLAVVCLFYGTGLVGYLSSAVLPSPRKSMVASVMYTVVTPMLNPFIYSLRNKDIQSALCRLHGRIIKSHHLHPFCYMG
In short: as §1

OR10A3 (Homo sapiens) = target: T16, OR10A3 (Homo sapiens) (UniProt P58181)
T16 sequence (whole entry): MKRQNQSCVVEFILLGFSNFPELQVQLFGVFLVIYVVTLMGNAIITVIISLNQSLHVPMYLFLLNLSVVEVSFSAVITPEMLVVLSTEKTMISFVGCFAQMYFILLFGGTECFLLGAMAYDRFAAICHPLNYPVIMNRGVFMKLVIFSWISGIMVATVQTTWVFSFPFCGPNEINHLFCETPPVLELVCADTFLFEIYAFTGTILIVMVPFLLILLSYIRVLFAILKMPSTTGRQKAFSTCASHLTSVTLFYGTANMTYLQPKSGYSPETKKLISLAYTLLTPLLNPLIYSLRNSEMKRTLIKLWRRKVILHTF
In short: as §1

O5AN1 = test system: T17, O5AN1
T17 sequence (whole entry): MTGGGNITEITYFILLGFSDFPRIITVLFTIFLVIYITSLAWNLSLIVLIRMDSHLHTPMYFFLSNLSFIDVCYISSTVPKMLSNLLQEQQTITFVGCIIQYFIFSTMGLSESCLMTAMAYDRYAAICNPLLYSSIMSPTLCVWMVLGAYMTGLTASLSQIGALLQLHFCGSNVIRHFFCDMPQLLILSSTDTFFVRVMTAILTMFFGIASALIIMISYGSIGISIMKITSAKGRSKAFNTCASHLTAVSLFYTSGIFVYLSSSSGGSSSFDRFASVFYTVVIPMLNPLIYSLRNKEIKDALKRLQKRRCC
In short: as §1

Measured: odorant receptor agonist call

C=CC(C)(O)CCC=C(C)C (stereo not drawn)
not listed: O5AN1
inactive: all other assays above

C=CCc1ccc(OC(C)=O)c(OC)c1
active: O52R1 | O5H14 | O6C68
not listed: O5AN1
inactive: all other assays above

O=C1CCCCCCCCCCCCCCO1
inactive: all assays above

O=C1CCCCCCCCCCCC(=O)OCCO1
active: O52R1 | O6C68
inactive: all other assays above

CC(=O)OCC=C(C)CCC=C(C)C
active: O52W1 | O56B1 | O6C68
not listed: O5AN1
inactive: all other assays above

CC1CCC(C(C)C)C(O)C1 (stereo not drawn)
active: O5H14
not listed: O5AN1
inactive: all other assays above
